Measured values taken from paper PMC12375214.
Results are given in words; binding and its absence hold for the method and conditions named. In cells and extracts the contact can be indirect. Some binding calls cover weakened binding; strength is not graded here.

Experiments:
[1] = target: T1, GCSH, endogenous in TCMK-1 cells (mouse (endogenous in TCMK-1)) (UniProt Q91WK5); test: co-IP; TCMK-1 cell lysate, control cells; anti-GCSH antibody 4 h at 4 °C, protein A/G magnetic beads overnight, Western blot
T1 sequence: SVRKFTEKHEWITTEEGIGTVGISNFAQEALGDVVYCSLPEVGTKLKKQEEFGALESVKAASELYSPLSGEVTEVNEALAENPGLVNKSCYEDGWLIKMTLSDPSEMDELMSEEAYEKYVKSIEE

[2] = target: T1, GCSH, endogenous in TCMK-1 cells (mouse (endogenous in TCMK-1)); test: condition: only cells treated with FeCl2 (100 μM, 24 h); co-IP; TCMK-1 cells treated with FeCl2 (100 μM, 24 h); anti-GCSH antibody 4 h at 4 °C, protein A/G magnetic beads overnight, Western blot

binding [1]: binds
binding [2]: no binding
B1: lipoic acid synthase (LIAS), endogenous in TCMK-1 cells (enzyme, UniProt Q99M04 27-373)
chain: LSSLPDKKKEFLHNGPDLQDFVSGDLADKSTWDEYKGNLKRQKGERLRLPPWLKTKIPMGKNYNKLKNTLRNLSLHTVCEEARCPNIGECWGGGEYATATATIMLMGDTCTRGCRFCSVKTARNPPPLDANEPDNTAKAIAEWGLDYVVLTSVDRDDVADGGAEHIAKTVSCLKERNPKILVECLTPDFRGDLRAVEKVALSGLDVYAHNVETVPELQRKVRDPRANFDQSLRVLRHAKEVQPDVVSKTSIMLGLGETDEQVYATLKALRAADVDCLTLGQYMQPTKRHLKVEEYVTPEKFKYWEKVGNELGFLYTASGPLVRSSYKAGEFFLKNLVARRKTKASKV
